Laboratory results from publication doi:10.1101/2022.09.05.506654.
No constants are given. Whether binding was seen depends on the method and setting. In cells and extracts the contact can be indirect. Some binding calls cover weakened binding; strength is not graded here.

Chains of the proteins cited; added tags and fusions are not shown. Residues count along the entry.
UniProt P02340: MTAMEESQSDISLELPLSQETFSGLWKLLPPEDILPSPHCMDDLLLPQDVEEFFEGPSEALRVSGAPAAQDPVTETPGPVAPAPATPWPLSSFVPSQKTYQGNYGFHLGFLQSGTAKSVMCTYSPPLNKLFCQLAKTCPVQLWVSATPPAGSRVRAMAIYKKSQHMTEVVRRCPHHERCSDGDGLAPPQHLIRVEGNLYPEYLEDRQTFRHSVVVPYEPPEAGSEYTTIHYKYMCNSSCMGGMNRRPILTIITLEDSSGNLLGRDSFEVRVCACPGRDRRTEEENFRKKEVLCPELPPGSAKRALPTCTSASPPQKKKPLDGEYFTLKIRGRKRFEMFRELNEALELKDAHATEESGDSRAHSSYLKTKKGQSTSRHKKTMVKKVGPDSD
UniProt P38647, residues 47-679: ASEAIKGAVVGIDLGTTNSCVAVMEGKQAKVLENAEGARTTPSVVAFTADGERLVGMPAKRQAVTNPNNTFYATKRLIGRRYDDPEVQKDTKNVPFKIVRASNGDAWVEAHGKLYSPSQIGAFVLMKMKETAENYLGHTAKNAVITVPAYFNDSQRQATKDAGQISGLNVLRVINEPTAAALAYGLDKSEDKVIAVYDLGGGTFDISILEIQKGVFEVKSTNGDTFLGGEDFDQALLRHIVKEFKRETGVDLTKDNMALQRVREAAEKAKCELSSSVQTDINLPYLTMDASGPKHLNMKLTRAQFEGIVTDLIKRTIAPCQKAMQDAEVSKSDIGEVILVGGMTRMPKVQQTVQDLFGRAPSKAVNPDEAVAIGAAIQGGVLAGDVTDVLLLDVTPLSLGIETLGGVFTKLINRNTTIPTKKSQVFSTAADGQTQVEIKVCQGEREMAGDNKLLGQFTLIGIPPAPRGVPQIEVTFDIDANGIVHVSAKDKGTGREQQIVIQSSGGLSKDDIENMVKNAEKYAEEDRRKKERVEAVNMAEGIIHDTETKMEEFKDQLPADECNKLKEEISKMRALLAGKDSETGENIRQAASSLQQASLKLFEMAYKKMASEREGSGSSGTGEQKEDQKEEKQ

What was measured:
[1] = biological target: p53, endogenous in murine endothelial cells (mouse (endogenous in murine endothelial cells)) (UniProt P02340); assay: co-IP
[2] = biological target: T1, TERT, endogenous in murine endothelial cells (mouse (endogenous in murine endothelial cells)) (UniProt O70372); assay: co-IP
T1 sequence: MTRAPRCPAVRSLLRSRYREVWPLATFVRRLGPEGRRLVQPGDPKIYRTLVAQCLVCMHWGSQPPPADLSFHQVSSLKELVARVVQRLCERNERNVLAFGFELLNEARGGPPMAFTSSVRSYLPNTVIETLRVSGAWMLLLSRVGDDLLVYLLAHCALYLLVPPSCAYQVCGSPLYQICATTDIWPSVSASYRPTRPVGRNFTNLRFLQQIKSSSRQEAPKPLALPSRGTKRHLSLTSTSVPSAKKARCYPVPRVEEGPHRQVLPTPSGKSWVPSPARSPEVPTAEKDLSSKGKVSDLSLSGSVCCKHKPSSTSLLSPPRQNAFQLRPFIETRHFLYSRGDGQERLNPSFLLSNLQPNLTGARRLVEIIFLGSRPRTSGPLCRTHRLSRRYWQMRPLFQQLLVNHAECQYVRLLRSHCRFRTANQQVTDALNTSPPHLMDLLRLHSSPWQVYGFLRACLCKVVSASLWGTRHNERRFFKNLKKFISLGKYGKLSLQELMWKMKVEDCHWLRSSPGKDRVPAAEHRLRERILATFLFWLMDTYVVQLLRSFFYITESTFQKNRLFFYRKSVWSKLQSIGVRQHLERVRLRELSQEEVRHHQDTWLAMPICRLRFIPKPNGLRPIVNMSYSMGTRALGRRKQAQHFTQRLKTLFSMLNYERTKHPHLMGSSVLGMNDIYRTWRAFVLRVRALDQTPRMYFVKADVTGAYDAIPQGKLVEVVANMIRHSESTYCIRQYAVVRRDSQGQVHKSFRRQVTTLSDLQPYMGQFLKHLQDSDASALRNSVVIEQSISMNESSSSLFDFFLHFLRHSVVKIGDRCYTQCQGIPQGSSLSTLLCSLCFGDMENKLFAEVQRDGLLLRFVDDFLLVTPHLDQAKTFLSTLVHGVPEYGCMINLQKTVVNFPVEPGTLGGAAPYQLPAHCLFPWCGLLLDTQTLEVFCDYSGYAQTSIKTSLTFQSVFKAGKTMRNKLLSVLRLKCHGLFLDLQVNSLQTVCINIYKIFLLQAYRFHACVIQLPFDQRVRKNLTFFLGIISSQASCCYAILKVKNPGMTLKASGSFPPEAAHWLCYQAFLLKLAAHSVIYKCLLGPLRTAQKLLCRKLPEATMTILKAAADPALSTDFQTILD

binding [1] | Substance | binding [2]
binds | CSE, endogenous in murine endothelial cells (from UniProt Q8VCN5 1-398) (enzyme) | –
– | HSP9a, endogenous in murine endothelial cells (from UniProt P38647 47-679) | binds
